For at least one compound, name, drawing or mass did not settle the structure.
Tested on: bone marrow-derived DCs (BMDCs)
Assay: In vitro mouse DC survival assay (PI / Annexin V staining)
Type: cell-based
Conditions: wortmannin 0.5 μM

Which “cell death in Bcl-2+/− and Bcl-2−/− DCs” value does the source give for `COC[C@H]1OC(=O)c2coc3c2[C@@]1(C)C1=C(C3=O)[C@@H]2CCC(=O)[C@@]2(C)C[C@H]1OC(C)=O` [wortmannin] here?
Its value is “rapidly induced cell death both in Bcl-2 and Bcl-2−/− DCs”.
